PubChem BioAssay AID743121 | NCATS | 2013

Test: 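Genes whose silencing strengthens cell killing by camptothecin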 (primary screen)
Cells: MDA-MB-231 cells, a human breast cancer line
Knock-down reagent: single siRNA against human genes, 20 nM siRNA (0.8 pmol per well)
Timing: 120 h (drug added 48 h after transfection, read 72 h later)
Conditions: camptothecin 20 nM (about EC30) for 72 h; vehicle 0.1% DMSO in parallel plates
Measurement: 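CellTiter-Glo ATP signal, scaled to control siRNA as percent viability; sensitisation given as log2 of untreated divided by camptothecin-treated viability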
Scale: log2 vehicle/camptothecin viability: higher = stronger sensitisation to camptothecin; viability with camptothecin: higher = more viable cells
Active means: 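Active genes have an RSA gene-level p-value below 0.001, computed from the ratios of their separate siRNAs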
The deposit covers about 26,000 reagents; this is a part drawn at random. 167 of all reagents (0.63%) count as active. 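Calls are per gene from RSA p-values that are not deposited; an individual active-marked siRNA can sensitise only weakly.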 The numbers tell different reagents against one gene apart. Not all columns of the deposit are shown.

| gene symbol | siRNA no. | log2 vehicle/camptothecin viability | viability with camptothecin (% of control) | call |
| --- | --- | --- | --- | --- |
| CD80 | 1 | -0.119 | 111 | inactive |
| CD80 | 2 | -0.0711 | 94.3 | inactive |
| CD80 | 3 | 0.0433 | 44 | inactive |
| KMT2C | 1 | 0.277 | 62.5 | inactive |
| KMT2C | 2 | -0.252 | 35.6 | inactive |
| KMT2C | 3 | -0.32 | 65 | inactive |
| ALPP | 1 | -0.229 | 93.8 | inactive |
| RFK | 1 | -0.217 | 77 | inactive |
| RFK | 2 | 0.0266 | 97.6 | inactive |
| RFK | 3 | 0.0649 | 88.6 | inactive |
| RFK | 4 | 0.0795 | 71.8 | inactive |
| STRADA | 1 | -0.109 | 60.9 | inactive |
| STRADA | 2 | -0.049 | 94.4 | inactive |
| STRADA | 3 | -0.648 | 83.4 | inactive |
| STRADA | 4 | -0.253 | 83 | inactive |
| KCNJ10 | 1 | -0.366 | 55.7 | inactive |
| KCNJ10 | 2 | 0.355 | 62.1 | inactive |
| KCNJ10 | 3 | 0.045 | 87.6 | inactive |
| KCNJ10 | 4 | -0.224 | 55.1 | inactive |
| PDCD6 | 1 | -0.122 | 106 | inactive |
| PDCD6 | 2 | -0.682 | 68.2 | inactive |
| PDCD6 | 3 | -0.0826 | 106 | inactive |
| PDCD6 | 4 | 0.457 | 70.1 | inactive |
| DTL | 1 | 0.301 | 55.1 | inactive |
| DTL | 2 | 0.801 | 38.1 | inactive |
| DTL | 3 | 1.26 | 20 | inactive |
| DTL | 4 | -0.549 | 62.9 | inactive |
| ITLN1 | 1 | -0.185 | 91.9 | inactive |
| ITLN1 | 2 | 0.0763 | 79.3 | inactive |
| ITLN1 | 3 | 0.0674 | 30.6 | inactive |
| ITLN1 | 4 | -0.373 | 86 | inactive |
| ALDH1A1 | 1 | -0.0208 | 44.2 | inactive |
| ALDH1A1 | 2 | -0.0245 | 98.1 | inactive |
| ALDH1A1 | 3 | -0.236 | 106 | inactive |
| ALDH1A1 | 4 | 0.124 | 89.4 | inactive |
| BPHL | 1 | -0.0906 | 97.2 | inactive |
| BPHL | 2 | -0.356 | 125 | inactive |
| BPHL | 3 | -0.357 | 70 | inactive |
| BPHL | 4 | 0.126 | 91.3 | inactive |
| OR10A5 | 1 | -0.653 | 38.4 | inactive |
| OR10A5 | 2 | -0.32 | 91.1 | inactive |
| OR10A5 | 3 | -0.366 | 91.1 | inactive |
| OR10A5 | 4 | -0.298 | 75.5 | inactive |
| OR10A5 | 5 | -0.417 | 80.1 | inactive |
| OR10A5 | 6 | -0.101 | 93.9 | inactive |
| OR10A5 | 7 | 0.285 | 50.6 | inactive |
| PTGS2 | 1 | -0.26 | 113 | inactive |
| PTGS2 | 2 | -0.496 | 81.1 | inactive |
| PTGS2 | 3 | 0.253 | 34.6 | inactive |
| UBL4B | 1 | -0.347 | 82 | inactive |
| UBL4B | 2 | -0.164 | 101 | inactive |
| UBL4B | 3 | 0.00454 | 78.5 | inactive |
| REEP6 | 1 | -0.244 | 115 | inactive |
| REEP6 | 2 | -0.831 | 65.3 | inactive |
| REEP6 | 3 | -0.214 | 73.7 | inactive |
| REEP6 | 4 | -0.179 | 107 | inactive |
| LMNA | 1 | -0.0586 | 48.9 | inactive |
| LMNA | 2 | -0.116 | 70.4 | inactive |
| LMNA | 3 | -0.133 | 47.1 | inactive |
| LMNA | 4 | -0.0568 | 68.5 | inactive |
| AATF | 1 | -0.103 | 53.4 | inactive |
| AATF | 2 | -0.367 | 61 | inactive |
| AATF | 3 | -0.542 | 87.4 | inactive |
| AATF | 4 | -0.301 | 82.6 | inactive |
| RAB4B | 1 | -0.153 | 78.7 | inactive |
| RAB4B | 2 | -0.13 | 31.8 | inactive |
| RAB4B | 3 | 0.0762 | 19.8 | inactive |
| RAB4B | 4 | -0.291 | 28.8 | inactive |
| ADAMTS15 | 1 | 0.311 | 76.5 | inactive |
| ADAMTS15 | 2 | -0.423 | 81.8 | inactive |
| ADAMTS15 | 3 | -0.285 | 74.2 | inactive |
| ADAMTS15 | 4 | 0.22 | 47.4 | inactive |
| ANKK1 | 1 | -0.071 | 101 | inactive |
| ANKK1 | 2 | 0.216 | 85 | inactive |
| ANKK1 | 3 | -0.416 | 70.6 | inactive |
| ANKK1 | 4 | -0.181 | 62.8 | inactive |
| WHR1 | 1 | -0.53 | 137 | inactive |
| WHR1 | 2 | -0.372 | 92.7 | inactive |
| WHR1 | 3 | -0.317 | 111 | inactive |
| WHR1 | 4 | 0.455 | 49.3 | inactive |
| IL11RA | 1 | 0.119 | 35.7 | inactive |
| IL11RA | 2 | -0.362 | 70.5 | inactive |
| IL11RA | 3 | -0.392 | 83.7 | inactive |
| GPR68 | 1 | -0.488 | 93.9 | inactive |
| GPR68 | 2 | 0.269 | 74.5 | inactive |
| GPR68 | 3 | -0.111 | 74.2 | inactive |
| GPR68 | 4 | -0.162 | 42.6 | inactive |

Single entries from the list:
Under “viability with camptothecin (% of control)”, STRADA #1 is entered as 60.9
REEP6 #3, viability with camptothecin (% of control) = 73.7
DTL #2, viability with camptothecin (% of control): 38.1
Result of STRADA #2 in “log2 vehicle/camptothecin viability”: -0.049
For “call”, OR10A5 #6 is entered as inactive
Result of RAB4B #3 in “viability with camptothecin (% of control)”: 19.8
